This is an account of results in article PMC8882603.

The chains behind the UniProt entries cited, without tags or fusion partners.
UniProt P22366: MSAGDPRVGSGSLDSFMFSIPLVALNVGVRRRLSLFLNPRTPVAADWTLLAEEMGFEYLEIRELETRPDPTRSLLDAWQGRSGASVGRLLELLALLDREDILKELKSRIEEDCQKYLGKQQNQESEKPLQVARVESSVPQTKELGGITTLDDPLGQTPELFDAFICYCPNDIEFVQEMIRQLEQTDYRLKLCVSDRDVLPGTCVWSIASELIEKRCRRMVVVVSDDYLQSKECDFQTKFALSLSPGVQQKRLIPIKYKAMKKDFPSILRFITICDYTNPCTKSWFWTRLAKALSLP
UniProt Q99836: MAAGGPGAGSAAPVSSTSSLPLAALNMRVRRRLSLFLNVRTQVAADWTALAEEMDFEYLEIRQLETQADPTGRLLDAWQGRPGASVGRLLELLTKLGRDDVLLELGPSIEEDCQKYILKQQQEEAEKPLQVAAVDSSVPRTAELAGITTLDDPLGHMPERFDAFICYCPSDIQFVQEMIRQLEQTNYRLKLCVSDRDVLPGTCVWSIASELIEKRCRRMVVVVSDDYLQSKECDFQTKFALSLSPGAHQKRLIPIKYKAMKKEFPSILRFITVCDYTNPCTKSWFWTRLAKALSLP
UniProt Q9CUN6: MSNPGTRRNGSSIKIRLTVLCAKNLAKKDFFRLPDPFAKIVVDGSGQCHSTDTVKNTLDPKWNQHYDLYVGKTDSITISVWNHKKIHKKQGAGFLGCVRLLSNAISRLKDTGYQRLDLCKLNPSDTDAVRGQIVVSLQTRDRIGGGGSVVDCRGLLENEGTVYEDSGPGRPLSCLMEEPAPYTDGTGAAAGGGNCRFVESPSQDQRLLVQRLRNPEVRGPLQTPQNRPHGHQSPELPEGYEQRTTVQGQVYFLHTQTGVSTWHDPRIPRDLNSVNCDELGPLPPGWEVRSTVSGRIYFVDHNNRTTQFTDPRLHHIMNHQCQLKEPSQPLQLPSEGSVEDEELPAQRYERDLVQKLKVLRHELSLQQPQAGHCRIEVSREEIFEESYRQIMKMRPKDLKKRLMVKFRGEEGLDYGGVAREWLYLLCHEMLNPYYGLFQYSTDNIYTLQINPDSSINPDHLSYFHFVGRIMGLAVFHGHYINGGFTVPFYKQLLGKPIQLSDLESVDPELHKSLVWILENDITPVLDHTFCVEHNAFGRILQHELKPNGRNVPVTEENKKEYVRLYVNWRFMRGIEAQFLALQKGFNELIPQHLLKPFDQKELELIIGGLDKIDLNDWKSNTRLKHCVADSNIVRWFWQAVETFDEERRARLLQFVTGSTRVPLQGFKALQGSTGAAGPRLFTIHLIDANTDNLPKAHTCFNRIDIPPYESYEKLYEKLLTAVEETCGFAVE
UniProt Q9HCE7: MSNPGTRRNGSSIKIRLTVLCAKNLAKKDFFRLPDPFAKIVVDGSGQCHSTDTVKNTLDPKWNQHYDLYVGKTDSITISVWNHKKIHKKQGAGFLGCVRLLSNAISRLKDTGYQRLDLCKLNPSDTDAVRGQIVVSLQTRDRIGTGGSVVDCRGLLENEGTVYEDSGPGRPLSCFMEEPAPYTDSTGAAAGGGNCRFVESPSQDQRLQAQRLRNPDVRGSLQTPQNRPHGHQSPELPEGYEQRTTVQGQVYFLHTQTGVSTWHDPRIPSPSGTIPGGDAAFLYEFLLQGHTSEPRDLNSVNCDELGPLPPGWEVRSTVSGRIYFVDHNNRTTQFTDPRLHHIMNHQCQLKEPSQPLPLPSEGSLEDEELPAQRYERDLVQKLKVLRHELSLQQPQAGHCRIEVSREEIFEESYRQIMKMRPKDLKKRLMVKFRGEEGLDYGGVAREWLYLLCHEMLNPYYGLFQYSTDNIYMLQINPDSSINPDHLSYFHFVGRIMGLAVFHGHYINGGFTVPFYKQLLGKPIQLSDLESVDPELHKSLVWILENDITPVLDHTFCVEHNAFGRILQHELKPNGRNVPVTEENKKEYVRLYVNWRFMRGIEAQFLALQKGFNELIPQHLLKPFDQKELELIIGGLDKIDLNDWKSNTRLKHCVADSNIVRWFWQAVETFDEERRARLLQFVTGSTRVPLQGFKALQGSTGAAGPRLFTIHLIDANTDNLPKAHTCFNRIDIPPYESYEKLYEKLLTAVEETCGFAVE

Results are given in words; binding and its absence hold for the method and conditions named. In cells and extracts the contact can be indirect. Some entries that bind do so weakly or less than the wild type.

Test [1] deals with MyD88 (endogenous, RAW-PPE36 macrophages) (mouse (endogenous in RAW264.7)) (UniProt P22366). Nature of the test: co-IP; RAW-PPE36 and control RAW264.7 macrophages; lysates immunoprecipitated for MyD88, precipitates immunoblotted for Smurf1.
For test [2], the target named is MyD88-HA (UniProt Q99836). The test is described as follows: co-IP; HEK293T cells co-transfected with pMyD88-HA, pPPE36-Flag, pSmurf1-Myc and pUb-Flag for 36 h; lysates immunoprecipitated with anti-HA beads, precipitates immunoblotted (anti-Myc, anti-Smurf1); with and without PPE36.

“Smurf1 (endogenous, RAW-PPE36 macrophages) (from UniProt Q9CUN6 1-731) (enzyme)”: the binding entry in test [1] was “binds”. In the case of “Smurf1-Myc (from UniProt Q9HCE7 1-757) (enzyme)”, the binding entry in test [2] was “binds”.
